# Reference: the supplement of paper PMC4604168 (melanoma cell lines)
# Some of the results follow. Many values rest on one well or one pass, so single values are uncertain.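 Imaging used 1,536-well plates; nuclei positive for cleaved PARP by antibody were divided by total DNA-stained nuclei to yield the apoptosis fraction. Doses for screening kept most cells viable, and cell lines differ markedly in resting and induced cleaved-PARP levels.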
# Tested on: WM115
# Test: cleaved PARP positive nuclei fraction relative to DMSO control; melanoma cells; higher = more apoptosis
# Conditions: library dose: low library concentration; 72 h
row,SMILES,cleaved PARP positive nuclei fraction
1,"N#CC[C@H](C1CCCC1)n1cc(-c2ncnc3[nH]ccc23)cn1 [ruxolitinib] + C=CCNC1=C2C[C@@H](C)C[C@H](OC)[C@H](O)[C@@H](C)/C=C(\C)[C@H](OC(N)=O)[C@@H](OC)/C=C\C=C(/C)C(=O)NC(=CC1=O)C2=O [Tanespimycin] (first compound 1 µM, partner dose 0.002 µM)",50%
2,"Cc1cn(-c2cc(NC(=O)c3ccc(C)c(Nc4nccc(-c5cccnc5)n4)c3)cc(C(F)(F)F)c2)cn1 [nilotinib] + COCC[n+]1c2c(n(Cc3cnccn3)c1C)C(=O)c1ccccc1C2=O [YM155] (first compound 0.2 µM, partner dose 0.0004 µM)",55%
3,"Cc1cn(-c2cc(NC(=O)c3ccc(C)c(Nc4nccc(-c5cccnc5)n4)c3)cc(C(F)(F)F)c2)cn1 [nilotinib] + CCN(CC)CCNC(=O)c1c(C)[nH]c(/C=C2\C(=O)Nc3ccc(F)cc32)c1C [sunitinib] (first compound 0.2 µM, partner dose 0.4 µM)",78%
4,"COc1cc([C@@H]2c3cc4c(cc3[C@@H](O[C@@H]3O[C@@H]5CO[C@@H](C)O[C@H]5[C@H](O)[C@H]3O)[C@H]3COC(=O)[C@H]23)OCO4)cc(OC)c1O [etoposide] + CNC(=O)c1cc(Oc2ccc(NC(=O)Nc3ccc(Cl)c(C(F)(F)F)c3)cc2)ccn1 [sorafenib] (first compound 0.02 µM, partner dose 0.4 µM)",57.5%
5,"Cc1cc(Nc2cc(N3CCN(C)CC3)nc(Sc3ccc(NC(=O)C4CC4)cc3)n2)n[nH]1 [Tozasertib] + CN1CCN(c2ccc3nc(-c4c(N)c5c(F)cccc5[nH]c4=O)[nH]c3c2)CC1 [Dovitinib] (first compound 0.006 µM, partner dose 0.1 µM)",56.3%
6,"COc1cc([C@@H]2c3cc4c(cc3[C@@H](O[C@@H]3O[C@@H]5CO[C@@H](C)O[C@H]5[C@H](O)[C@H]3O)[C@H]3COC(=O)[C@H]23)OCO4)cc(OC)c1O [etoposide] + Nc1cccc2c1CN(C1CCC(=O)NC1=O)C2=O [lenalidomide] (first compound 0.02 µM, partner dose 1 µM)",95.2%
7,"CC[C@]1(O)C[C@H]2CN(CCc3c([nH]c4ccccc34)[C@@](C(=O)OC)(c3cc4c(cc3OC)N(C=O)[C@H]3[C@@](O)(C(=O)OC)[C@H](OC(C)=O)[C@]5(CC)C=CCN6CC[C@]43[C@@H]65)C2)C1 [vincristine] + Cc1cn(-c2cc(NC(=O)c3ccc(C)c(Nc4nccc(-c5cccnc5)n4)c3)cc(C(F)(F)F)c2)cn1 [nilotinib] (first compound 0.0001 µM, partner dose 0.2 µM)",1510%
8,"N#CC[C@H](C1CCCC1)n1cc(-c2ncnc3[nH]ccc23)cn1 [ruxolitinib] + Nc1cccc2c1CN(C1CCC(=O)NC1=O)C2=O [lenalidomide] (first compound 1 µM, partner dose 1 µM)",43.9%
9,"N#CC[C@H](C1CCCC1)n1cc(-c2ncnc3[nH]ccc23)cn1 [ruxolitinib] + COCC[n+]1c2c(n(Cc3cnccn3)c1C)C(=O)c1ccccc1C2=O [YM155] (first compound 1 µM, partner dose 0.0004 µM)",47.1%
10,"CCCCCCCCCCCCCCCCCCOP(=O)([O-])OC1CC[N+](C)(C)CC1 [Perifosine] + O=C(O)[C@@H]1[O][Sb](=[O])([O][Sb]2(=[O])[O][C@H]([C@H](O)CO)[C@H](O)[C@H](C(=O)O)[O]2)[O][C@H]([C@H](O)CO)[C@@H]1O [stibogluconate] (first compound 0.4 µM, partner dose 2 µM)",175%
11,"O=c1[nH]nc(Sc2ncc([N+](=O)[O-])s2)n1-c1ccc2c(c1)OCCO2 + Nc1ncn([C@H]2C[C@H](O)[C@@H](CO)O2)c(=O)n1 [decitabine] (first compound 0.2 µM, partner dose 0.1 µM)",202%
12,"O=C(Nc1cc(C(F)(F)F)cc(C(F)(F)F)c1)c1cc(Cl)ccc1O + CC(C)C[C@H](NC(=O)[C@H](Cc1ccccc1)NC(=O)c1cnccn1)B(O)O [Bortezomib] (first compound 0.016 µM, partner dose 0.001 µM)",72.5%
13,"N#CC[C@H](C1CCCC1)n1cc(-c2ncnc3[nH]ccc23)cn1 [ruxolitinib] + C[C@]1(O)C[C@@H](c2nc(-c3ccc4ccc(-c5ccccc5)nc4c3)c3c(N)nccn32)C1 [OSI906] (first compound 1 µM, partner dose 0.4 µM)",82.7%
14,"Cc1cc(Nc2cc(N3CCN(C)CC3)nc(Sc3ccc(NC(=O)C4CC4)cc3)n2)n[nH]1 [Tozasertib] + CNC(=O)c1cc(Oc2ccc(NC(=O)Nc3ccc(Cl)c(C(F)(F)F)c3)cc2)ccn1 [sorafenib] (first compound 0.006 µM, partner dose 0.4 µM)",148%
15,"Cc1ccc(Nc2nccc(N(C)c3ccc4c(C)n(C)nc4c3)n2)cc1S(N)(=O)=O [Pazopanib] + CN1CCN(c2ccc3nc(-c4c(N)c5c(F)cccc5[nH]c4=O)[nH]c3c2)CC1 [Dovitinib] (first compound 0.4 µM, partner dose 0.1 µM)",81.2%
16,"Cc1cn(-c2cc(NC(=O)c3ccc(C)c(Nc4nccc(-c5cccnc5)n4)c3)cc(C(F)(F)F)c2)cn1 [nilotinib] + Cn1c(=O)n(-c2ccc(C(C)(C)C#N)cc2)c2c3cc(-c4cnc5ccccc5c4)ccc3ncc21 [NVP-BEZ235] (first compound 0.2 µM, partner dose 0.004 µM)",83.4%
17,"O=c1[nH]nc(Sc2ncc([N+](=O)[O-])s2)n1-c1ccc2c(c1)OCCO2 + C=CCNC1=C2C[C@@H](C)C[C@H](OC)[C@H](O)[C@@H](C)/C=C(\C)[C@H](OC(N)=O)[C@@H](OC)/C=C\C=C(/C)C(=O)NC(=CC1=O)C2=O [Tanespimycin] (first compound 0.2 µM, partner dose 0.002 µM)",156%
18,"CCCCCCCCCCCCCCCCCCOP(=O)([O-])OC1CC[N+](C)(C)CC1 [Perifosine] + C#Cc1cccc(Nc2ncnc3cc(OCCOC)c(OCCOC)cc23)c1 [erlotinib] (first compound 0.4 µM, partner dose 0.8 µM)",442%
19,"COc1cc([C@@H]2c3cc4c(cc3[C@@H](O[C@@H]3O[C@@H]5CO[C@@H](C)O[C@H]5[C@H](O)[C@H]3O)[C@H]3COC(=O)[C@H]23)OCO4)cc(OC)c1O [etoposide] + C[C@]1(O)C[C@@H](c2nc(-c3ccc4ccc(-c5ccccc5)nc4c3)c3c(N)nccn32)C1 [OSI906] (first compound 0.02 µM, partner dose 0.4 µM)",283%
20,"CCCCCCCCCCCCCCCCCCOP(=O)([O-])OC1CC[N+](C)(C)CC1 [Perifosine] + C[C@@H](N)c1ccc(C(=O)Nc2ccnc3[nH]ccc23)cc1 [RKI983] (first compound 0.4 µM, partner dose 0.4 µM)",123%
21,"CCCCCCCCCCCCCCCCCCOP(=O)([O-])OC1CC[N+](C)(C)CC1 [Perifosine] + CCCS(=O)(=O)Nc1ccc(F)c(C(=O)c2c[nH]c3ncc(Cl)cc23)c1F [PLX4720] (first compound 0.4 µM, partner dose 0.08 µM)",80.1%
22,"O=C(/C=C/c1cccnc1)NCCCCC1CCN(C(=O)c2ccccc2)CC1 + Cc1cc(Nc2cc(N3CCN(C)CC3)nc(/C=C/c3ccccc3)n2)n[nH]1 [ENMD2076] (first compound 0.01 µM, partner dose 0.04 µM)",156%
23,"O=C(/C=C/c1cccnc1)NCCCCC1CCN(C(=O)c2ccccc2)CC1 + Clc1ccc(Nc2nnc(Cc3ccncc3)c3ccccc23)cc1 [vatalanib] (first compound 0.01 µM, partner dose 2 µM)",17.8%
24,"Cc1cc(Nc2cc(N3CCN(C)CC3)nc(Sc3ccc(NC(=O)C4CC4)cc3)n2)n[nH]1 [Tozasertib] + CC1(C)CCC(c2ccc(Cl)cc2)=C(CN2CCN(c3ccc(C(=O)NS(=O)(=O)c4ccc(N[C@H](CCN5CCOCC5)CSc5ccccc5)c(S(=O)(=O)C(F)(F)F)c4)cc3)CC2)C1 [ABT263] (first compound 0.006 µM, partner dose 0.4 µM)",233%
25,"CCCCCCCCCCCCCCCCCCOP(=O)([O-])OC1CC[N+](C)(C)CC1 [Perifosine] + NC(=O)c1ccc(N(C(N)=O)c2c(F)cccc2F)nc1-c1ccc(F)cc1F [VX702] (first compound 0.4 µM, partner dose 0.4 µM)",151%
26,"CCCCCCCCCCCCCCCCCCOP(=O)([O-])OC1CC[N+](C)(C)CC1 [Perifosine] + CC(=O)c1c(C)c2cnc(Nc3ccc(N4CCNCC4)cn3)nc2n(C2CCCC2)c1=O [palbociclib] (first compound 0.4 µM, partner dose 0.04 µM)",75.7%
27,"Cc1ccc(Nc2nccc(N(C)c3ccc4c(C)n(C)nc4c3)n2)cc1S(N)(=O)=O [Pazopanib] + O=C(O)c1ccc2c(c1)nc(Nc1cccc(Cl)c1)c1ccncc12 [CX4945] (first compound 0.4 µM, partner dose 0.4 µM)",125%
28,"Cc1cn(-c2cc(NC(=O)c3ccc(C)c(Nc4nccc(-c5cccnc5)n4)c3)cc(C(F)(F)F)c2)cn1 [nilotinib] + C=C(c1ccc(C(=O)O)cc1)c1cc2c(cc1C)C(C)(C)CCC2(C)C [Bexarotene] (first compound 0.2 µM, partner dose 2 µM)",55.5%

# Single values from above.
# Value of Cc1cn(-c2cc(NC(=O)c3ccc(C)c(Nc4nccc(-c5cccnc5)n4)c3)cc(C(F)(F)F)c2)cn1 [nilotinib] + CCN(CC)CCNC(=O)c1c(C)[nH]c(/C=C2\C(=O)Nc3ccc(F)cc32)c1C [sunitinib] (first compound 0.2 µM, partner dose 0.4 µM) under cleaved PARP positive nuclei fraction: 78%
# Value of N#CC[C@H](C1CCCC1)n1cc(-c2ncnc3[nH]ccc23)cn1 [ruxolitinib] + C=CCNC1=C2C[C@@H](C)C[C@H](OC)[C@H](O)[C@@H](C)/C=C(\C)[C@H](OC(N)=O)[C@@H](OC)/C=C\C=C(/C)C(=O)NC(=CC1=O)C2=O [Tanespimycin] (first compound 1 µM, partner dose 0.002 µM) under cleaved PARP positive nuclei fraction: 50%
